Experimental data: PubChem BioAssay AID1224830 (NIAID, 2016)
The whole screen tested about 18,000 reagents; below is a part drawn at random. In the full data, about 2,900 (16%) were called active. 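Calls are made per well; low scores hint the gene aids the LPS response, high scores that it dampens it.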 Unmarked entries are inactive. Repeated entries: four replicate wells of each siRNA pool.

Aim: 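Host factors that control LPS-induced TNF expression in human macrophages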 (primary screen)
Cell system: human THP-1 monocytic leukaemia cells, TNF dual-luciferase reporter clone, PMA-differentiated to macrophage-like cells
Reagents: siRNA pool against human genes, 50 nM
Duration: LPS for 4 h, given about 3 days after siRNA transfection
Conditions: bacterial LPS (TLR4 ligand), 10 ng/ml
Detection: 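TNF firefly reporter luminescence divided by renilla, normalised to the plate median, then turned into a robust z-score for each replicate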
Scale: TNF reporter robust z-score: higher = stronger TNF reporter response to LPS
Hit rule: 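Each well counts as active if its z-score is over 2.8 or under -1.5; controls are left without a call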

The first 2 entries, to show the layout:
gene knocked down	TNF reporter robust z-score
ARF3	2.89 (active)
ARF3	2.68

Results, from the first entry:
gene knocked down	TNF reporter robust z-score
ARF3	2.89 (active)
ARF3	2.68
ARF3	1.88
ARF3	2.36
TREML1	-0.46
TREML1	0.37
TREML1	-0.95
TREML1	-0.53
COL4A6	-0.27
COL4A6	0.27
COL4A6	0.51
COL4A6	0.15
GPR141	-0.06
GPR141	-0.22
GPR141	-0.3
GPR141	0.07
PXT1	0.02
PXT1	0.24
PXT1	-0.34
PXT1	0.87
SMC2	-0.34
SMC2	-0.45
SMC2	0.38
SMC2	1.43
USP6NL	-0.91
USP6NL	0.07
USP6NL	-0.78
USP6NL	0.08
FSTL3	1.3
FSTL3	-0.6
FSTL3	-0.41
FSTL3	0.36
PLEKHG2	0.18
PLEKHG2	-0.02
PLEKHG2	0.38
PLEKHG2	0.12
SLITRK3	-0.06
SLITRK3	2.74
SLITRK3	-0.2
SLITRK3	-0.62
CRIP2	-0.19
CRIP2	0.56
CRIP2	0.92
CRIP2	0.33
DBX1	-1.34
DBX1	-0.43
DBX1	-0.67
ATP1B4	-0.87
ATP1B4	-1.25
ATP1B4	-1.63 (active)
ATP1B4	-0.95
CST5	0.96
CST5	1.22
CST5	1.4
CST5	4.19 (active)
GIMAP4	-0.28
GIMAP4	-0.53
GIMAP4	-1.03
GIMAP4	0.62
CCN4	-0.45
CCN4	-0.6
CCN4	-0.94
CCN4	-1.75 (active)
STK4	2.82 (active)
STK4	-0.23
STK4	0.45
STK4	0.7
DAB2IP	-1.06
DAB2IP	-0.34
DAB2IP	0.98
DAB2IP	-0.13
ZNF397	-0.35
ZNF397	0.1
ZNF397	-1
ZNF397	0.16
NRG2	0.31
NRG2	0.23
NRG2	-0.02
NRG2	0.32
SLC36A4	0.24
SLC36A4	0.56
SLC36A4	0.05
SLC36A4	0.89
ZNF175	-0.14
ZNF175	0.74
ZNF175	-0.38
ZNF175	-0.19
SSX5	-0.46
SSX5	0.53
SSX5	1.24
SSX5	1.27
ECHDC3	-0.1
ECHDC3	0.72
ECHDC3	-0.11
ECHDC3	0.14
FPR1	-0.02
FPR1	0.74
FPR1	0.99
FPR1	1.33
ZNF350	-0.08
ZNF350	-0.81
ZNF350	-1.7 (active)
ZNF350	-1.28
OR5B2	-0.25
OR5B2	-0.14
OR5B2	-0.08
MT3	0.36
MT3	-0.32
MT3	-0.87
MT3	-0.62
